Results taken from the supplement of paper PMC10849652.
Some of the results follow.

By UniProt entry, the sequences of proteins in these tests, tags left out. Where a name states a change or a piece, a line headed by the entry shows the natural chain unless it says otherwise.
UniProt O60658: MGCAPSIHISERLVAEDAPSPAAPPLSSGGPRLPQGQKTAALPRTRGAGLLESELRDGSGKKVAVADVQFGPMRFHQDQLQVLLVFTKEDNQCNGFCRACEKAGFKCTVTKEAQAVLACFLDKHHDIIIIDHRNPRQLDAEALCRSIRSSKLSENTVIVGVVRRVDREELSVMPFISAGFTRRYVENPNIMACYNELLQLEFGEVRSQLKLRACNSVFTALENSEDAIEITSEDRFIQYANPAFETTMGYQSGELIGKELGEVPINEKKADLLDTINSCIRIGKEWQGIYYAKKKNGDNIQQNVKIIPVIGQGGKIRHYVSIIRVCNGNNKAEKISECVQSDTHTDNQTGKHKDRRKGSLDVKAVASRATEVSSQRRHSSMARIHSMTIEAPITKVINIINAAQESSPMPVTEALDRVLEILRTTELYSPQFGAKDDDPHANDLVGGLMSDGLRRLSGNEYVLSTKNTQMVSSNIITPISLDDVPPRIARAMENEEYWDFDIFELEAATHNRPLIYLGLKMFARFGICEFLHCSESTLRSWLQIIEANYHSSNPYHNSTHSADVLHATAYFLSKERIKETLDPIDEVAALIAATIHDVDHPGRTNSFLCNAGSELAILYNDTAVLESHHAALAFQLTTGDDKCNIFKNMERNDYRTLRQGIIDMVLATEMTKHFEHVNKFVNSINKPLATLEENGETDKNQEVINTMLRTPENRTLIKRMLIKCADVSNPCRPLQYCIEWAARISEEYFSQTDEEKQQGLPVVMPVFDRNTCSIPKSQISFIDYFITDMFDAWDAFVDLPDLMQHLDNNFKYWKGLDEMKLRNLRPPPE
UniProt Q15154: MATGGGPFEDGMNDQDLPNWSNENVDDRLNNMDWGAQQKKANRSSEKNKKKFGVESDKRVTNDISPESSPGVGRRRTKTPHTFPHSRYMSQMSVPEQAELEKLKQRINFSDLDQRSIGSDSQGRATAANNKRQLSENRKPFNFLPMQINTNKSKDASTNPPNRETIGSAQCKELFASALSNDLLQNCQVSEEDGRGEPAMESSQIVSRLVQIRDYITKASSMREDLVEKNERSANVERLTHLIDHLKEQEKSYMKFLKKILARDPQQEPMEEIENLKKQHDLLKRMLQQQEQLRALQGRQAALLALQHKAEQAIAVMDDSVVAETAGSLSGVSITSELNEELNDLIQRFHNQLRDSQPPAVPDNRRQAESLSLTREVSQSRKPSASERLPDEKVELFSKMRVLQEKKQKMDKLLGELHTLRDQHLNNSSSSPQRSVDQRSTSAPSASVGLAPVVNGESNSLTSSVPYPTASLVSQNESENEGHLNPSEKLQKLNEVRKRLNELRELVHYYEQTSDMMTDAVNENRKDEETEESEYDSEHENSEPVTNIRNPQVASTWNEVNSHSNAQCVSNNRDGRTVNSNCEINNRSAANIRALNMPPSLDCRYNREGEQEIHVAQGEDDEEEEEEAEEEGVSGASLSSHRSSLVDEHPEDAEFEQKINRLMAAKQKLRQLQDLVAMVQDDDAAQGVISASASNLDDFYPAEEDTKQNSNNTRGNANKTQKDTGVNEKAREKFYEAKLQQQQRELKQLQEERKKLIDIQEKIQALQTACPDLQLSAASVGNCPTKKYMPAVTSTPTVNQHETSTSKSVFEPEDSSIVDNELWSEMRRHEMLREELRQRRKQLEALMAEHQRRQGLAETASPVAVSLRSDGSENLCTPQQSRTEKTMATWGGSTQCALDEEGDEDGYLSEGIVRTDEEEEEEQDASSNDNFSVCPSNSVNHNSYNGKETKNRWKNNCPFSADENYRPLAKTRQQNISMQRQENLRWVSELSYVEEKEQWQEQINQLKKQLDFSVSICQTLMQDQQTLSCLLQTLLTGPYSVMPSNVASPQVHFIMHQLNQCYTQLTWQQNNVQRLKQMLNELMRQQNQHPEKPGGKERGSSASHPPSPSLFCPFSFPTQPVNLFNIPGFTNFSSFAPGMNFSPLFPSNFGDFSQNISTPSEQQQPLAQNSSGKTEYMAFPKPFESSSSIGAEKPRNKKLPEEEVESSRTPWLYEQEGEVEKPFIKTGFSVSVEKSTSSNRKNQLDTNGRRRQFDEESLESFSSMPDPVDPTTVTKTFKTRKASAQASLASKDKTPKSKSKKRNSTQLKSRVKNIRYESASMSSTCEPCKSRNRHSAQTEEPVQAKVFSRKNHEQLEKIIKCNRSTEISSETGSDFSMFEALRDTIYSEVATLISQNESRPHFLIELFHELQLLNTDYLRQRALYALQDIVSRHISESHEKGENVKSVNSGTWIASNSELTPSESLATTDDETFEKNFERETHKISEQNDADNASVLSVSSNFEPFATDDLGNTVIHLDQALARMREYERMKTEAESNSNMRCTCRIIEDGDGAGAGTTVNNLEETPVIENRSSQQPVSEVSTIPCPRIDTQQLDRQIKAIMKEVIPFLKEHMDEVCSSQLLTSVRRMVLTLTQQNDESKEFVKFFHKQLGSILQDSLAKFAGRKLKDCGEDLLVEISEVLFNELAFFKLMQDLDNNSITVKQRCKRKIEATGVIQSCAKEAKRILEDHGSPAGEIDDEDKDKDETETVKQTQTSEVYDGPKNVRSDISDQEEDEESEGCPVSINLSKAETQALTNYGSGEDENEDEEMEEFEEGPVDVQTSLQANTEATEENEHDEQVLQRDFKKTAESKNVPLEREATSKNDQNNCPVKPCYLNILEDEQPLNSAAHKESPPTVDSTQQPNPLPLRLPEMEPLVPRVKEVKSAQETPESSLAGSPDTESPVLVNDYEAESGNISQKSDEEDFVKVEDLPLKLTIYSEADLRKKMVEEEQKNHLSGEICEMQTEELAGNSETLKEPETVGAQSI
UniProt O15534, whole entry, looked up: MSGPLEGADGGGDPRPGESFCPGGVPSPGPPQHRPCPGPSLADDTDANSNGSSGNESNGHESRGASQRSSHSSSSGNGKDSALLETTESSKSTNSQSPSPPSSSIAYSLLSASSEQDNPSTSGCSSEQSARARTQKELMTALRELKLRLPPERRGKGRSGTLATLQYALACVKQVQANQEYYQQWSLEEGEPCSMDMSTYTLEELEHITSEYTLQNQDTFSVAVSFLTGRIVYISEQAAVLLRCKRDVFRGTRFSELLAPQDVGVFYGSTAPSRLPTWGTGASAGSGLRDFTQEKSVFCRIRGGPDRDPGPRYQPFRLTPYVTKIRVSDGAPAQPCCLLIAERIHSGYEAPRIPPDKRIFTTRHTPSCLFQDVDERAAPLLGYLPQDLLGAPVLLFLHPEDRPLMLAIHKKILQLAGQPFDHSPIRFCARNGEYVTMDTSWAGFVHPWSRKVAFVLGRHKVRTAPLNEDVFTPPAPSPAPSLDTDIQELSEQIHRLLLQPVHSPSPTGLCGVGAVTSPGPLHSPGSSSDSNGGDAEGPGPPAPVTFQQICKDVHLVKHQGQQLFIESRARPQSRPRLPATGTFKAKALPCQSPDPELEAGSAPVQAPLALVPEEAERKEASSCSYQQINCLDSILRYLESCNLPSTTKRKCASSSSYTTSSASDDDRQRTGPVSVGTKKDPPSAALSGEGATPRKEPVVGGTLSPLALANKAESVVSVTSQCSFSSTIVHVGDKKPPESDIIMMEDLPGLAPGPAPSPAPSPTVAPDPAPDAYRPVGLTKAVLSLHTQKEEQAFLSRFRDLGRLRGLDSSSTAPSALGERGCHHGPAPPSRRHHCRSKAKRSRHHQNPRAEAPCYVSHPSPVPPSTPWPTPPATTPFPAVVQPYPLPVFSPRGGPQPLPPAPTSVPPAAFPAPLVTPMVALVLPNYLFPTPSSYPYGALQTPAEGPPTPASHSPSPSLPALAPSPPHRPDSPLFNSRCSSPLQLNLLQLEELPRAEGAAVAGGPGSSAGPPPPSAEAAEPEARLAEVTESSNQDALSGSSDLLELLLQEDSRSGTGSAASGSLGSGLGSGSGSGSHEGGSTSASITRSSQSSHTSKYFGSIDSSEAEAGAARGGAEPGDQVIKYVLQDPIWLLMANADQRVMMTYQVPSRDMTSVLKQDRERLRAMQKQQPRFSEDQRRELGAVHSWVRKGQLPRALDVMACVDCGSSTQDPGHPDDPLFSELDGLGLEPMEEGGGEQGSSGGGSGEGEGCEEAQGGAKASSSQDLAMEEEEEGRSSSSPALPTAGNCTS
UniProt O00623: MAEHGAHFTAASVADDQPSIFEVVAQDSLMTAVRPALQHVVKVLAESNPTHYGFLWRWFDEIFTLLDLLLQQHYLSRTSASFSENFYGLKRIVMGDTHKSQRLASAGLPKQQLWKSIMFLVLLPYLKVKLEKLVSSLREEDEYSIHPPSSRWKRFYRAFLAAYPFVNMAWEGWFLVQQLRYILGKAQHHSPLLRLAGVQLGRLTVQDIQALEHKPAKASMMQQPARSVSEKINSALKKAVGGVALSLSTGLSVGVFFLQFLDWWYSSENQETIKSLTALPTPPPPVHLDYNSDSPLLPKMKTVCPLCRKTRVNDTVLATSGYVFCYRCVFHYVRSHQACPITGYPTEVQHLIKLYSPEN
UniProt Q86SE9: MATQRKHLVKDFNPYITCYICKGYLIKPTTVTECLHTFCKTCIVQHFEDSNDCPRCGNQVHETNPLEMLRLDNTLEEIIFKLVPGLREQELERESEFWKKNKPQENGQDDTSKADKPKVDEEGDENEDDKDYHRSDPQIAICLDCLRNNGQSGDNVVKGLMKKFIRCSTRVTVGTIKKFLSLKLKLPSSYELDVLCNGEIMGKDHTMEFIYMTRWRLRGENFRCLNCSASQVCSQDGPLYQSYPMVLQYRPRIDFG
UniProt Q8N165: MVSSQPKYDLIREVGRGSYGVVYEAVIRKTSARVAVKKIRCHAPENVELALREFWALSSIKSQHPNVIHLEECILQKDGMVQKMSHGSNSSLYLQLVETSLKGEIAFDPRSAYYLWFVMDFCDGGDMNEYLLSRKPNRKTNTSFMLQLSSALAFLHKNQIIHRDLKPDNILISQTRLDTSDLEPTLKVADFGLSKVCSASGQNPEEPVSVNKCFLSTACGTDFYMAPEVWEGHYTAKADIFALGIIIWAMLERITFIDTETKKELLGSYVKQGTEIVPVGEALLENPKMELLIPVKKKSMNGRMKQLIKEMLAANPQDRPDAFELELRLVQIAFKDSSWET
UniProt Q9NWS1: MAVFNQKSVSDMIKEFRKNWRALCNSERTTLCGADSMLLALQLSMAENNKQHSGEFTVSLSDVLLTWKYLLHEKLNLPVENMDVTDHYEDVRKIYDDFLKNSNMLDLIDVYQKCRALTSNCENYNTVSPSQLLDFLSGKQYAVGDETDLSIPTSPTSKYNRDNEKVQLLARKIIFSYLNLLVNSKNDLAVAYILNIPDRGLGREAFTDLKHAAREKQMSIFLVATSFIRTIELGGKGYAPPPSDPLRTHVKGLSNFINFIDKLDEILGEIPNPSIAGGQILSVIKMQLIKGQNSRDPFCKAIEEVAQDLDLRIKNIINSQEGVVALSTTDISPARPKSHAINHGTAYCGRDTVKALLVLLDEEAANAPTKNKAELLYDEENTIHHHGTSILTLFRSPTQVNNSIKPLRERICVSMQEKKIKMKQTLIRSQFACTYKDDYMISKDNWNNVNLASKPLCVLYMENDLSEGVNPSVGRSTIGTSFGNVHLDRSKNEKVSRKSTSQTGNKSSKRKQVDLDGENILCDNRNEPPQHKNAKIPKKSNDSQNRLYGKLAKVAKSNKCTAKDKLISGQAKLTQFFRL
UniProt O75340: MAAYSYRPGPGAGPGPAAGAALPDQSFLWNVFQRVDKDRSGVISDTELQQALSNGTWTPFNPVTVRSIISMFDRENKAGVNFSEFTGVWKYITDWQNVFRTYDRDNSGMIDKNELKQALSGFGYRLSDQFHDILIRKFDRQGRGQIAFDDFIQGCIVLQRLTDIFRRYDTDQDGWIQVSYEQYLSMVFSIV
UniProt Q9H0J9: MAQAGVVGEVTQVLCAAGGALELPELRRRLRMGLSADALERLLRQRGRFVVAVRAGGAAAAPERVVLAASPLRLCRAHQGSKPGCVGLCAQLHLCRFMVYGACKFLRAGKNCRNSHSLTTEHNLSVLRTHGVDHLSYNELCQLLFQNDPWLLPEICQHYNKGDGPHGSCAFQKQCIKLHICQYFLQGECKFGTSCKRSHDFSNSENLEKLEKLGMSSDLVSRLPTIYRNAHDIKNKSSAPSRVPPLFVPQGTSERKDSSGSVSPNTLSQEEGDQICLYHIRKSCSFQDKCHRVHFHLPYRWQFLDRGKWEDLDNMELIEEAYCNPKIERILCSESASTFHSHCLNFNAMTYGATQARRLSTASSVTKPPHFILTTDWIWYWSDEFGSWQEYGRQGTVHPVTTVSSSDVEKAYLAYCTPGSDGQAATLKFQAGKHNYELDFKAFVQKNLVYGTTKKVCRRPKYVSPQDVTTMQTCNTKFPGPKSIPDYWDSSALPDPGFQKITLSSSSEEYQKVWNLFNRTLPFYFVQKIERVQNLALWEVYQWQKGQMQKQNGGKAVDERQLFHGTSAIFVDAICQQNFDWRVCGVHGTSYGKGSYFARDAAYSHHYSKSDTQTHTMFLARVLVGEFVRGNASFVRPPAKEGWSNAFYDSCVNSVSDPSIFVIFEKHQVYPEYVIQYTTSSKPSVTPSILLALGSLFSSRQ

What was measured:
Experiment in all cases: log2 fold change, soluble protein after heating vs DMSO (PISA); higher = thermal stabilisation; K562 lysate, 10 uM; active = over 0.2 and 3.5 SD of the protein, either way, in both replicates (recomputed)
Tubastatin A = compound: CN1CCc2c(c3ccccc3n2Cc2ccc(C(=O)NO)cc2)C1 [Tubastatin A]
Method in brief: (§1)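 K562 pellets were dounce-homogenised in PBS pH 7.4 containing 1 mM MgCl2, and the crude extract, at 1 mg/mL protein, was exposed to 10 μM compound for 30 min. Aliquots were heated for 3 min across 48°C-58°C, pooled, brought to 0.5% NP-40 at 4°C and spun at 21,000xg for 90 min, with the supernatant taken as soluble protein. TMTpro 16plex LC-MS/MS with equalised channel sums quantified that protein. Values are log-two fold changes in thermal stability relative to solvent controls, taken from duplicates.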

[1] = compound: CNC(=O)C1=CC=CC=C1NC2=NC(=NC=C2Cl)NC3=C(C=C(C=C3)N4CCOCC4)OC
Method in brief: as §1

defactinib = compound: CNC(=O)c1ccc(Nc2ncc(C(F)(F)F)c(NCc3nccnc3N(C)S(C)(=O)=O)n2)cc1 [defactinib]
Method in brief: as §1

[2] = compound: CNc1nc(-c2ccc3c(N)n[nH]c3c2)cc(N2C[C@@H](C(=O)NC3CCCCC3)CC[C@H]2C)n1
Method in brief: as §1

encorafenib = compound: COC(=O)N[C@@H](C)CNc1nccc(-c2cn(C(C)C)nc2-c2cc(Cl)cc(NS(C)(=O)=O)c2F)n1 [encorafenib]
Method in brief: as §1

[3] = compound: COC(=O)[C@H](CCSC)NC(=O)C1=C(C=C(C=C1)NC[C@H](CS)N)C2=CC=CC=C2
Method in brief: as §1

alisertib = compound: COc1cc(Nc2ncc3c(n2)-c2ccc(Cl)cc2C(c2c(F)cccc2OC)=NC3)ccc1C(=O)O [alisertib]
Method in brief: as §1

gefitinib = compound: COc1cc2ncnc(Nc3ccc(F)c(Cl)c3)c2cc1OCCCN1CCOCC1 [gefitinib]
Method in brief: as §1

pictilisib = compound: CS(=O)(=O)N1CCN(Cc2cc3nc(-c4cccc5[nH]ncc45)nc(N4CCOCC4)c3s2)CC1 [pictilisib]
Method in brief: as §1

duvelisib = compound: C[C@H](Nc1ncnc2nc[nH]c12)c1cc2cccc(Cl)c2c(=O)n1-c1ccccc1 [duvelisib]
Method in brief: as §1

tozasertib = compound: Cc1cc(Nc2cc(N3CCN(C)CC3)nc(Sc3ccc(NC(=O)C4CC4)cc3)n2)n[nH]1 [tozasertib]
Method in brief: as §1

bafetinib = compound: Cc1ccc(NC(=O)c2ccc(CN3CC[C@H](N(C)C)C3)c(C(F)(F)F)c2)cc1Nc1nccc(-c2cncnc2)n1 [bafetinib]
Method in brief: as §1

crizotinib = compound: C[C@@H](Oc1cc(-c2cnn(C3CCNCC3)c2)cnc1N)c1c(Cl)ccc(F)c1Cl [crizotinib]
Method in brief: as §1

doramapimod = compound: Cc1ccc(-n2nc(C(C)(C)C)cc2NC(=O)Nc2ccc(OCCN3CCOCC3)c3ccccc23)cc1 [doramapimod]
Method in brief: as §1

alvocidib = compound: CN1CC[C@H](c2c(O)cc(O)c3c(=O)cc(-c4ccccc4Cl)oc23)[C@H](O)C1 [alvocidib]
Method in brief: as §1

[4] = compound: C[C@H](C1=CC=C(C=C1)C(=O)NC2=C3C=CNC3=NC=C2)N
Method in brief: as §1

gandotinib = compound: Cc1cc(Nc2cc(CN3CCOCC3)c3nc(C)c(Cc4ccc(Cl)cc4F)n3n2)n[nH]1 [gandotinib]
Method in brief: as §1

[5] = compound: Cc1cccc(CC(=O)N2CCc3c2ccc(-c2cn(C)c4ncnc(N)c24)c3F)n1
Method in brief: as §1

[6] = compound: COc1cc2nc(-c3cc(F)ccc3O)nc(N[C@@H]3CNC[C@H]3C(C)(C)O)c2cc1OC
Method in brief: as §1

lapatinib = compound: CS(=O)(=O)CCNCc1ccc(-c2ccc3ncnc(Nc4ccc(OCc5cccc(F)c5)c(Cl)c4)c3c2)o1 [lapatinib]
Method in brief: as §1

Measured: log2 fold change

PCBP2 (UniProt F8W0G4)
inactive: Tubastatin A -0.009 | [1] 0.01 | defactinib 0.044 | [2] 0.033 | encorafenib 0.125 | [3] -0.006 | alisertib 0.192 | gefitinib 0.028 | pictilisib 0.087 | duvelisib 0.358 | tozasertib -0.069 | bafetinib -0.223

PDE8A (UniProt O60658)
inactive: [1] 0.164 | defactinib 0 | pictilisib 0.132 | crizotinib 0.028 | doramapimod -0.121 | bafetinib 0.109

PGAP2 isoform 2 (UniProt Q9UHJ9)
inactive: encorafenib 0.12 | [3] 0.17 | tozasertib -0.085

PCM1 isoform 5 (UniProt Q15154)
inactive: encorafenib -0.01 | [3] -0.107 | crizotinib -0.132 | tozasertib 0.024 | doramapimod -0.042

PER1 (UniProt O15534)
inactive: alvocidib 0.04 | [2] -0.425 | crizotinib -0.027 | [4] -0.046 | duvelisib -0.418 | gandotinib 0.035 | doramapimod 0.06 | [5] 0.095

PEX12 (UniProt O00623)
inactive: alvocidib 0.117 | [6] -0.063 | lapatinib -0.039 | [4] -0.353 | gandotinib -0.155 | [5] -0.069

PCGF5 (UniProt Q86SE9)
inactive: Tubastatin A -0.072 | [1] 0.035 | defactinib -0.112 | [2] -0.006 | encorafenib 0.087 | [3] -0.015 | alisertib -0.039 | [6] 0.032 | gefitinib 0.102 | lapatinib -0.125 | pictilisib 0.063 | crizotinib -0.08 | duvelisib 0.021 | tozasertib -0.063 | doramapimod -0.086 | bafetinib 0.026

PDIK1L (UniProt Q8N165)
inactive: Tubastatin A -0.14 | [2] -0.31 | duvelisib 0.141

PARPBP (UniProt Q9NWS1)
inactive: alvocidib 0.11 | [1] -0.004 | defactinib -0.152 | [2] 0.145 | encorafenib 0.03 | [3] -0.016 | alisertib -0.033 | gefitinib 0.112 | pictilisib -0.215 | [4] -0.177 | duvelisib -0.028 | gandotinib 0.087 | tozasertib -0.011 | bafetinib 0.004 | [5] 0.045

PDCD6 isoform 2 (UniProt O75340)
inactive: alvocidib 0.047 | Tubastatin A -0.035 | [4] 0.025 | gandotinib -0.077 | [5] 0.031

PARP12 (UniProt Q9H0J9)
inactive: Tubastatin A 0.093 | [1] 0.088 | [2] -0.017 | encorafenib 0.056 | [3] 0.02 | [6] -0.07 | lapatinib -0.052 | pictilisib -0.028 | crizotinib -0.182 | duvelisib -0.062 | tozasertib -0.043 | doramapimod -0.048 | bafetinib -0.077
